Consider 40 targets from the supplement of paper PMC10849652.

By UniProt entry, the sequences of proteins in these tests, tags left out. Where a name states a change or a piece, a line headed by the entry shows the natural chain unless it says otherwise.
UniProt P56945: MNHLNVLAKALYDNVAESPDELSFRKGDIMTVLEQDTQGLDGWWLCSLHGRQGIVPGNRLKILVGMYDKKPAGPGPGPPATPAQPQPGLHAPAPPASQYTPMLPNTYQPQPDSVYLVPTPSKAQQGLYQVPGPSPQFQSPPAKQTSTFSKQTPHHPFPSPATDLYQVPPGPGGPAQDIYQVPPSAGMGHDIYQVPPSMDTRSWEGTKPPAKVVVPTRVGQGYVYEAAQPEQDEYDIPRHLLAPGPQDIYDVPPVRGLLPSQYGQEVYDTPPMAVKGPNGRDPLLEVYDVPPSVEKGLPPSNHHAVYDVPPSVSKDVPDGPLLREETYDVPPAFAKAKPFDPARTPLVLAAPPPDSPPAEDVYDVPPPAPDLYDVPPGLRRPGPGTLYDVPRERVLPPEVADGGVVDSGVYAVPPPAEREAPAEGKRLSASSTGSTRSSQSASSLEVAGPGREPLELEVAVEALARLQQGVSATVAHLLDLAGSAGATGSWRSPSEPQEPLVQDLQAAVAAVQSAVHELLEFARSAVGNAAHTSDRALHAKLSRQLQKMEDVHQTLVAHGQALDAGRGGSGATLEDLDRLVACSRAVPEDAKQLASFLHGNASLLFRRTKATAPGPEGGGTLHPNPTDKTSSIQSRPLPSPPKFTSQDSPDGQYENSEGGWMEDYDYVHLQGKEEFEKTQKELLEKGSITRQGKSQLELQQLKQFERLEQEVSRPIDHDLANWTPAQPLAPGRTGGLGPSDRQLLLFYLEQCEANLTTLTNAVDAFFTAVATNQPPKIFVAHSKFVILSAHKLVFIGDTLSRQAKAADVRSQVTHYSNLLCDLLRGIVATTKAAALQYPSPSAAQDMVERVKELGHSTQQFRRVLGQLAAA
UniProt Q92843: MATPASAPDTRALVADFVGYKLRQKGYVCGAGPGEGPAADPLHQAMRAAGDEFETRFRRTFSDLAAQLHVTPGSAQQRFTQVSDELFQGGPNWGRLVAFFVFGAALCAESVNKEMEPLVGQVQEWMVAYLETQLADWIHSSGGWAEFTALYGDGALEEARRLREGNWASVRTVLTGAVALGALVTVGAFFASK
UniProt Q9UHR4: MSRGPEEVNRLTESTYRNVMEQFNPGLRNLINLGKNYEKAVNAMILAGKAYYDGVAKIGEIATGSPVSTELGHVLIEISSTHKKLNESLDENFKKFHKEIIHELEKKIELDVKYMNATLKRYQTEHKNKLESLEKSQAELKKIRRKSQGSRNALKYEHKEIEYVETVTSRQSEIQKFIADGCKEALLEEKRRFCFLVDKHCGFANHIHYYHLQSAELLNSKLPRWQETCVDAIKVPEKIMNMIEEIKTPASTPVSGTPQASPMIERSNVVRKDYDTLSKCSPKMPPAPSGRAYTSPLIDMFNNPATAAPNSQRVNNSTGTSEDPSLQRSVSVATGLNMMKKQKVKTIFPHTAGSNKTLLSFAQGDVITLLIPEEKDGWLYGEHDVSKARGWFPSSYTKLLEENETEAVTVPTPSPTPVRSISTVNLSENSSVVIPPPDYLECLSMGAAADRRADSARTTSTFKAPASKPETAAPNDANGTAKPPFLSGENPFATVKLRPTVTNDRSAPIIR
UniProt Q9P287, whole entry, looked up: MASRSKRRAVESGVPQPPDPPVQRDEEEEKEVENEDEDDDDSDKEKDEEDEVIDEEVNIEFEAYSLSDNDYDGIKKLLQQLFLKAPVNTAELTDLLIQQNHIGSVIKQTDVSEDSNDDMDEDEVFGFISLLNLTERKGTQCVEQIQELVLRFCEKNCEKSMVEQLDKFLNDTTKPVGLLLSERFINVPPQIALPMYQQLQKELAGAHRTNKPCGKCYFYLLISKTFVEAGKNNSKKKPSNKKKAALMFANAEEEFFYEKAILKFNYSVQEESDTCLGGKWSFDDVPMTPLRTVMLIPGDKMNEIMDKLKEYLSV
UniProt Q9NUP1: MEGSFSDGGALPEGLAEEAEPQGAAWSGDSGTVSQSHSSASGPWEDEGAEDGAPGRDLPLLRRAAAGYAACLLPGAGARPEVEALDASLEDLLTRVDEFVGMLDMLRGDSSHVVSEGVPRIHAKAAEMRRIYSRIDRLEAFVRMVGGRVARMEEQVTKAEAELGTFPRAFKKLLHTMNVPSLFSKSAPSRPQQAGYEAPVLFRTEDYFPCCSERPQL
UniProt Q8TDN6: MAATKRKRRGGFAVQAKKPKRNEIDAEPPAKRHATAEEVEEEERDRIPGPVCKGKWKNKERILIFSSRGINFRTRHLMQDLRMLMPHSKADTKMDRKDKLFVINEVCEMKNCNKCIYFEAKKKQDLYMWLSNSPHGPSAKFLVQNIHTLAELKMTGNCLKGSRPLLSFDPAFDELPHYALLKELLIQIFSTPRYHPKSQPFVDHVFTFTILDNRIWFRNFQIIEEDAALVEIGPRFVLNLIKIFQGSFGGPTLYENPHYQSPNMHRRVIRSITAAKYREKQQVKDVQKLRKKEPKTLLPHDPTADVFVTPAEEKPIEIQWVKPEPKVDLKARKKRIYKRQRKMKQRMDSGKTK
UniProt Q9Y679: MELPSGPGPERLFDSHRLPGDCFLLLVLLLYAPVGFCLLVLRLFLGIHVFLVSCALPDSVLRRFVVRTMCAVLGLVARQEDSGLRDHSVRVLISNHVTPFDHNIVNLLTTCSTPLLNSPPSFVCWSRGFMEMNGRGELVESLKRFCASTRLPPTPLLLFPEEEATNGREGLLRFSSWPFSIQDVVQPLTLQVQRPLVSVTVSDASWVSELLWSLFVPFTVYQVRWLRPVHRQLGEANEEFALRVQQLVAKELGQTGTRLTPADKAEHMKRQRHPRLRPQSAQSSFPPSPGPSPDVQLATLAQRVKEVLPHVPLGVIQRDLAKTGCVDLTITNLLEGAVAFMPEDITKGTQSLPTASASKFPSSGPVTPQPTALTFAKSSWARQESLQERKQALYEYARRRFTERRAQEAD
UniProt Q8WWM7: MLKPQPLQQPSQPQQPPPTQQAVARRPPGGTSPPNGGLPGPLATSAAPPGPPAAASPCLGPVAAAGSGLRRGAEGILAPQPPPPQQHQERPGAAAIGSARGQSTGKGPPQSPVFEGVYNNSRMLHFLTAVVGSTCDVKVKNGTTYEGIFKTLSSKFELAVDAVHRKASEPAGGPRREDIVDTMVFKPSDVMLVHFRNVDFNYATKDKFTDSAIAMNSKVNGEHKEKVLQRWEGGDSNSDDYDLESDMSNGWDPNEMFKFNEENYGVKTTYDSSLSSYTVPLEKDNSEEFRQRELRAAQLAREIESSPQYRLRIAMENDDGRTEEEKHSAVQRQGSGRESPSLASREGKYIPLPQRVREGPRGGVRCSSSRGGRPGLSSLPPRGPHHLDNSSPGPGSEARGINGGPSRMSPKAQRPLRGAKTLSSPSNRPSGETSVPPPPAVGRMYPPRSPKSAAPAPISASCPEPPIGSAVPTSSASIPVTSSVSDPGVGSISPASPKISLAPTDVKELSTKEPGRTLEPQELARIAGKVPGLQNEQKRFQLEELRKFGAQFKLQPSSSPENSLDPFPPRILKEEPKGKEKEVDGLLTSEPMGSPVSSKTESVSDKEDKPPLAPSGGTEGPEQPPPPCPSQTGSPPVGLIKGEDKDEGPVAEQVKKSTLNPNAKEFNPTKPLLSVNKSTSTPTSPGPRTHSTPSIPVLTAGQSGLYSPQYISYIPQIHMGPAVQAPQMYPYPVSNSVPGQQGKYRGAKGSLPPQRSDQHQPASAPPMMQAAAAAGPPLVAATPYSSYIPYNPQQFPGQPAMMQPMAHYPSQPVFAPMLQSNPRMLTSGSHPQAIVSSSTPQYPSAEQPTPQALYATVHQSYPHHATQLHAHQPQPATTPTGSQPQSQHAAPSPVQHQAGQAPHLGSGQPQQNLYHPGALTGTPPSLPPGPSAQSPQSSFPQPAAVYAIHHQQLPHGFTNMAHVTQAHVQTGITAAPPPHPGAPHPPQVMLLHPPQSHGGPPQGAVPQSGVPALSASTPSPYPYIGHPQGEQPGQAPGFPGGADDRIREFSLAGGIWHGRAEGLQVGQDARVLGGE
UniProt O75934: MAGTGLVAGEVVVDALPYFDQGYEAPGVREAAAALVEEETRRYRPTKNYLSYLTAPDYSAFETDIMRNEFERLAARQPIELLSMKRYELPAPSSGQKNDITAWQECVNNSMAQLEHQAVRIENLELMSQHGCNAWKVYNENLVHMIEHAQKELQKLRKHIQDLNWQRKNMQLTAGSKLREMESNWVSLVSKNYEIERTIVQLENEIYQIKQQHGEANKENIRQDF
UniProt Q9UL45: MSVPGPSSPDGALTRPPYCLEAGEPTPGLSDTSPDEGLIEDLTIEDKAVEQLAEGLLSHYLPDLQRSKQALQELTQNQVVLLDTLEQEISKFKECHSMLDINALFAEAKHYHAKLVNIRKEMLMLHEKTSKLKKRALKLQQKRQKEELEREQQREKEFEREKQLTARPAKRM
UniProt Q14137: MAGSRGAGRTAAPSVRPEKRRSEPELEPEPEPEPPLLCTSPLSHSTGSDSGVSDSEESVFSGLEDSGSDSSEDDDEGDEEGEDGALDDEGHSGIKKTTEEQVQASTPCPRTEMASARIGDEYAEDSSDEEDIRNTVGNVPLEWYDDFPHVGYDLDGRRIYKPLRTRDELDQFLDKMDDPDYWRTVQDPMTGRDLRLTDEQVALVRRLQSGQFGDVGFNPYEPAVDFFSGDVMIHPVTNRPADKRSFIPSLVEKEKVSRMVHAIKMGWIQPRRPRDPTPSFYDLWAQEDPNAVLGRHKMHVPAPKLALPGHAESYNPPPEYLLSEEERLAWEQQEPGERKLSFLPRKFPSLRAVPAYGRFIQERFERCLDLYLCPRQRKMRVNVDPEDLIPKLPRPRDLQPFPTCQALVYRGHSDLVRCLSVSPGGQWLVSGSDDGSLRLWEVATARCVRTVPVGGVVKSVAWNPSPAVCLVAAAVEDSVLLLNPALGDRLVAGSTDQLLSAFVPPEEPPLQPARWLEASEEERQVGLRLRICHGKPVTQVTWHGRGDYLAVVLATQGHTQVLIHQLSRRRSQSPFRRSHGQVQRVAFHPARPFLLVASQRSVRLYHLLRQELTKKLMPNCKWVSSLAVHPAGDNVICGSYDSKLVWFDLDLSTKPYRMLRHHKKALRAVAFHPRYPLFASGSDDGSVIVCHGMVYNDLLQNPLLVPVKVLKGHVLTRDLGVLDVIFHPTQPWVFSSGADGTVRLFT
UniProt Q92560: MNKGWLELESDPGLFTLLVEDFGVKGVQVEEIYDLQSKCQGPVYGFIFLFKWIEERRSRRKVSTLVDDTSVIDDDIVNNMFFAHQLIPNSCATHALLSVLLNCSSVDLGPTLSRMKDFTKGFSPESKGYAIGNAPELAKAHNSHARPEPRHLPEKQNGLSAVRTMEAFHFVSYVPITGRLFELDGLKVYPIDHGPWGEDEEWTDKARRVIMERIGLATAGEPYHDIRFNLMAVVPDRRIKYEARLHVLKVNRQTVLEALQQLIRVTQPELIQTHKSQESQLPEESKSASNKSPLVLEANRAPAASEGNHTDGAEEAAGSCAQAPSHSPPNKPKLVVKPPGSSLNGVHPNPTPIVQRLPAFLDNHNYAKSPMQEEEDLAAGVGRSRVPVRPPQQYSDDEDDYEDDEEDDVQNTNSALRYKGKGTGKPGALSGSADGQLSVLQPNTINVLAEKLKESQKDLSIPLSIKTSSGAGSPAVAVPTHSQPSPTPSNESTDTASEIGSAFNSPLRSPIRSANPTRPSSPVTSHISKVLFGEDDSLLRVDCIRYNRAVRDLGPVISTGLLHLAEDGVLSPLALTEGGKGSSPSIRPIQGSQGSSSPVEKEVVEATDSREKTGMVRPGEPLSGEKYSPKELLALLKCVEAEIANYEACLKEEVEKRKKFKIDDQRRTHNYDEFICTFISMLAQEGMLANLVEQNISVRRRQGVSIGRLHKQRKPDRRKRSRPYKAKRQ
UniProt Q96GS4: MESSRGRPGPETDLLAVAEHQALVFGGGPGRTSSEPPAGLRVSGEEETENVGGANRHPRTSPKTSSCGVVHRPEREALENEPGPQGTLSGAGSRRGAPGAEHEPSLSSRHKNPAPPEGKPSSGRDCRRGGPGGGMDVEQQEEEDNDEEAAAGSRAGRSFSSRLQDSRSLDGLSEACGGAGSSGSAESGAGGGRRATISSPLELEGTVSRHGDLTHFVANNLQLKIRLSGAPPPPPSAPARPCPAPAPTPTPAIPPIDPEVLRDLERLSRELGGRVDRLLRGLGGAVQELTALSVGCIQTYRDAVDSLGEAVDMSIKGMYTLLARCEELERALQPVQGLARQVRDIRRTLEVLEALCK
UniProt O14965: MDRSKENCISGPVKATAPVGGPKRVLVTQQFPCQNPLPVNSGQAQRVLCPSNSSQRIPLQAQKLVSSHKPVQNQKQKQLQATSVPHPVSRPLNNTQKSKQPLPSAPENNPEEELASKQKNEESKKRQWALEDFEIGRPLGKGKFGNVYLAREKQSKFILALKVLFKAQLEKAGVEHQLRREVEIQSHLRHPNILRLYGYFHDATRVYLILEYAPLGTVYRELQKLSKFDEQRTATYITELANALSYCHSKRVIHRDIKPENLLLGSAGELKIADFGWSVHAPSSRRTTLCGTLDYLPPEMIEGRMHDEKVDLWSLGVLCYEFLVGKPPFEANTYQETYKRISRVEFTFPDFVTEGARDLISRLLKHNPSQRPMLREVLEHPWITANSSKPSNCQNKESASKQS

Some of the results follow.

Compound in one test: C#Cc1cccc(Nc2ncnc3cc(OCCOC)c(OCCOC)cc23)c1 [erlotinib]
As to the kind of experiment: log2 fold change, soluble protein after heating vs DMSO (PISA); higher = thermal stabilisation; K562 cells, 10 uM, 30 min; active = over 0.2 and 3.5 SD of the protein, either way, in both replicates (recomputed). The gist of the method: (§1)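 K562 cells at 2×10^6 cells/mL were treated for 30 min with 10 μM compound, and aliquots were heated for 3 min over 48°C-58°C before pooling. Extraction used PBS with 0.5% NP-40 at 4°C, and soluble protein was the supernatant after 21,000xg for 90 min, measured by TMTpro 16plex LC-MS/MS with channel sums equalised. Thermal stability values, relative to control samples and from duplicates, are log2 fold changes.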
For the target ATXN2 (UniProt Q99700), the log2 fold change was inactive: -0.047.

Turning to BCAR1 isoform 6 (UniProt P56945), the log2 fold change is inactive: 0.085.

For the target BPGM (UniProt P07738), the log2 fold change is inactive: 0.027.

Take BRAP (UniProt Q7Z569): the log2 fold change is inactive: 0.114.

With BAX isoform 2 (UniProt Q07812), the log2 fold change was inactive: 0.018.

For BPHL (UniProt Q86WA6), the log2 fold change was inactive: -0.016.

For the target BCL2L2 isoform 2 (UniProt Q92843), the log2 fold change was inactive: -0.069.

Take BACH1 (UniProt O14867): the log2 fold change is inactive: -0.045.

Turning to BAIAP2L1 (UniProt Q9UHR4), the log2 fold change was inactive: -0.018.

Turning to BCCIP (UniProt Q9P287), the log2 fold change is inactive: -0.024.

With BLOC1S4 (UniProt Q9NUP1), the log2 fold change is inactive: 0.014.

Regarding BICD2 isoform 2 (UniProt Q8TD16), the log2 fold change is inactive: 0.047.

As for BAG6 isoform 3 (UniProt P46379), the log2 fold change is inactive: -0.041.

In the case of BRIX1 (UniProt Q8TDN6), the log2 fold change was inactive: -0.093.

In the case of AUP1 (UniProt Q9Y679), the log2 fold change is inactive: 0.018.

For B4GALT1 (UniProt P15291), the log2 fold change is inactive: -0.095.

Turning to BIRC2 (UniProt Q13490), the log2 fold change is inactive: 0.032.

For ATXN7L3B (UniProt Q96GX2), the log2 fold change is inactive: -0.003.

In the case of ATXN2L (UniProt Q8WWM7), the log2 fold change is inactive: -0.003.

Take BORCS5 (UniProt Q969J3): the log2 fold change was inactive: 0.046.

Turning to B3GAT3 (UniProt O94766), the log2 fold change was inactive: 0.004.

Take BNIP2 (UniProt J3KN59): the log2 fold change was inactive: -0.017.

For B3GNTL1 (UniProt Q67FW5), the log2 fold change is inactive: 0.216.

On to BCAS2 (UniProt O75934), for which the log2 fold change is inactive: -0.124.

On to BLOC1S6 (UniProt Q9UL45), for which the log2 fold change is inactive: -0.005.

In the case of BLVRA (UniProt P53004), the log2 fold change is inactive: 0.03.

Take BOP1 (UniProt Q14137): the log2 fold change was inactive: -0.003.

For BCS1L (UniProt Q9Y276), the log2 fold change is inactive: -0.017.

BRCC3 (UniProt P46736): the log2 fold change was inactive: 0.01.

On to BCCIP isoform 2 (UniProt Q9P287), for which the log2 fold change was inactive: -0.1.

As for BOD1L1 (UniProt Q8NFC6), the log2 fold change was inactive: -0.001.

As for B3GNT2 (UniProt Q9NY97), the log2 fold change is inactive: -0.073.

Regarding B4GALT3 (UniProt O60512), the log2 fold change is inactive: -0.044.

Take AVL9 (UniProt Q8NBF6): the log2 fold change was inactive: 0.051.

For BAP1 (UniProt Q92560), the log2 fold change was inactive: 0.182.

Consider BLOC1S2 (UniProt Q6QNY1), for which the log2 fold change is inactive: 0.

Consider BCAP29 isoform 2 (UniProt Q9UHQ4), for which the log2 fold change was inactive: -0.02.

Turning to BRAT1 (UniProt Q6PJG6), the log2 fold change was inactive: 0.024.

Turning to BORCS6 (UniProt Q96GS4), the log2 fold change is inactive: 0.032.

As to AURKA (UniProt O14965), the log2 fold change was inactive: 0.181.

Compound in a further test: C/C(=N\NC(=O)C1=CC(=CC=C1)S(=O)(=O)N2CCOCC2)/C3=C(C=CC(=C3)Cl)O
Described as above. The gist of the method:
as §1
As for ATXN2 (UniProt Q99700), the log2 fold change was inactive: 0.051.

With BCAR1 isoform 6 (UniProt P56945), the log2 fold change was inactive: -0.214.

As for BPGM (UniProt P07738), the log2 fold change is inactive: 0.055.

As for BRAP (UniProt Q7Z569), the log2 fold change was inactive: 0.09.

On to BAX isoform 2 (UniProt Q07812), for which the log2 fold change is inactive: -0.019.

For BPHL (UniProt Q86WA6), the log2 fold change was inactive: 0.053.

In the case of BCL2L2 isoform 2 (UniProt Q92843), the log2 fold change was inactive: 0.013.

As for BACH1 (UniProt O14867), the log2 fold change was inactive: -0.027.

On to BAIAP2L1 (UniProt Q9UHR4), for which the log2 fold change is inactive: 0.023.

For the target BCCIP (UniProt Q9P287), the log2 fold change was inactive: 0.045.

As for BLOC1S4 (UniProt Q9NUP1), the log2 fold change was inactive: 0.026.

With BICD2 isoform 2 (UniProt Q8TD16), the log2 fold change is inactive: 0.05.

BAG6 isoform 3 (UniProt P46379): the log2 fold change was inactive: 0.056.

BRIX1 (UniProt Q8TDN6): the log2 fold change is inactive: -0.05.

As to AUP1 (UniProt Q9Y679), the log2 fold change was inactive: 0.055.

Regarding B4GALT1 (UniProt P15291), the log2 fold change was inactive: 0.07.

With BIRC2 (UniProt Q13490), the log2 fold change is inactive: -0.003.

In the case of ATXN7L3B (UniProt Q96GX2), the log2 fold change was inactive: -0.015.

As to ATXN2L (UniProt Q8WWM7), the log2 fold change was inactive: 0.018.

For the target BORCS5 (UniProt Q969J3), the log2 fold change was inactive: 0.138.

On to B3GAT3 (UniProt O94766), for which the log2 fold change is inactive: 0.097.

For BNIP2 (UniProt J3KN59), the log2 fold change was inactive: 0.036.

In the case of B3GNTL1 (UniProt Q67FW5), the log2 fold change is inactive: -0.011.

Regarding BCAS2 (UniProt O75934), the log2 fold change is inactive: 0.03.

With BLOC1S6 (UniProt Q9UL45), the log2 fold change is inactive: 0.017.

Consider BLVRA (UniProt P53004), for which the log2 fold change was inactive: 0.045.

As to BOP1 (UniProt Q14137), the log2 fold change is inactive: 0.038.

For the target BCS1L (UniProt Q9Y276), the log2 fold change was inactive: -0.02.

In the case of BRCC3 (UniProt P46736), the log2 fold change is inactive: -0.041.

Consider BCCIP isoform 2 (UniProt Q9P287), for which the log2 fold change is inactive: 0.023.

For the target BOD1L1 (UniProt Q8NFC6), the log2 fold change was inactive: -0.023.

As to B3GNT2 (UniProt Q9NY97), the log2 fold change was inactive: 0.008.

As to B4GALT3 (UniProt O60512), the log2 fold change is inactive: 0.172.

Take AVL9 (UniProt Q8NBF6): the log2 fold change was inactive: 0.071.

On to BAP1 (UniProt Q92560), for which the log2 fold change was inactive: -0.013.

For BLOC1S2 (UniProt Q6QNY1), the log2 fold change was inactive: -0.06.

Turning to BCAP29 isoform 2 (UniProt Q9UHQ4), the log2 fold change is inactive: 0.002.

As to BRAT1 (UniProt Q6PJG6), the log2 fold change was inactive: 0.012.

Take BORCS6 (UniProt Q96GS4): the log2 fold change is inactive: 0.05.

In the case of AURKA (UniProt O14965), the log2 fold change was inactive: 0.018.
